Earlier results as cited in patent US20160324770A1, “INTRATHECAL ADMINISTRATION, PREFERABLY INTRAVENTRICULAR, OF MTOR INHIBITORS FOR THE THERAPY OF SOME NEURODEGENERATIVE, NEUROINFLAMMATORY AND NEURO-ONCOLOGIC DISEASES” (priority 2012, published 2016).
At least one compound was matched to its structure with a doubt left.

System: experimental allergic encephalitis (EAE)
Conditions: SJL mice, PLP 139-151 EAE; cited from earlier work

Compound: CO[C@H]1C[C@@H]2CC[C@@H](C)[C@@](O)(O2)C(=O)C(=O)N2CCCC[C@H]2C(=O)O[C@H]([C@H](C)C[C@@H]2CC[C@@H](O)[C@H](OC)C2)CC(=O)[C@H](C)/C=C(\C)[C@@H](O)[C@@H](OC)C(=O)[C@H](C)C[C@H](C)/C=C/C=C/C=C/1C [rapamycin]
- Effect of administration after the first attack: reduced the severity and number of subsequent attacks
- Effect of administration before the disease manifested itself: substantially inhibited its onset and successive relapses
